The values below come from patent publication US20210324109A1.

Sequences of proteins named here, by UniProt entry; tags and fusion partners are left off. A change or cut given only in a name is not applied to a line headed by its entry.
UniProt P00740: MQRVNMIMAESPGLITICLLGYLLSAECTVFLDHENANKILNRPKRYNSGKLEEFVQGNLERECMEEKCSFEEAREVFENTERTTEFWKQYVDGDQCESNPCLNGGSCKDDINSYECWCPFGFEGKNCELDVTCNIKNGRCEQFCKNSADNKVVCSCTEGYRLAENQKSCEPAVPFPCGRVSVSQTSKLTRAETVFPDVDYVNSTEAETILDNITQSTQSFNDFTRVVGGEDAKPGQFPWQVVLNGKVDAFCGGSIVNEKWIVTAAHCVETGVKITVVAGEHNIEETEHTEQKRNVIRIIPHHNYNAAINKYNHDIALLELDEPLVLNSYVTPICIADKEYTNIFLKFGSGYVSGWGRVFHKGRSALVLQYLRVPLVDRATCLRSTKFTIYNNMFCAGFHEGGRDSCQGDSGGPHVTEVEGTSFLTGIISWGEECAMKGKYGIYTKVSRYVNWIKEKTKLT

Results are given in words; binding and its absence hold for the method and conditions named. Binding calls can cover weak binding; strength is not graded here.

Experiment [1] addresses Factor IXaβ (Enzyme Research Laboratories) (UniProt P00740). The experiment is described as follows: ELISA, plate-coated Factor IXa 1 µg/ml, anti-human IgG4 detection.
Experiment [2] shares this target. Description: ELISA, plate-coated Factor IXa.

B1: hA69-PF (humanized A69 homodimer) (antibody, human IgG4, V domains shown)
VH: EVQLVQSGAEVVKPGSSVKVSCTASGYTFSDYYMHWVRQAPGEGLEWMGYINPSSGYTKYNRKFRDRVTITADKSTSTAYMELSSLRSEDTAVYYCARGGLGYYLDYWGEGTTVTVSS
VL: DIVMTQSPSSLSASVGDRVTITCKASQNVGTAVAWYQQKPGKAPKLLIYSASYRYSGVPSRFSGSRYGTDFTLTISSLQPEDLATYYCQQYSNYITFGQGTKVEIK
As for B1, the binding result in experiment [1] and in experiment [2] was “binds” throughout.
